Source: patent US20030199424A1, “Method of treatment and/or prophylaxis” (priority 2002, published 2003)

Test: Body weight, metabolic signs and general health of STZ-diabetic rats
Assay type: in vivo, rat
Source text: Induction of STZ-diabetes produced an initial ≈5-10% reduction in (mean±SEM) body weight from 233 (±1.99) g pre-STZ administration to 218 (±3.28) g at 4 wks post-STZ, followed by a gradual return to the pre-study weight over the ensuing 6-mth study period (FIG. 1).
One rat died 5 wks after the cessation of candesartan therapy.

For candesartan, the “Effect on hyperphagia, polydipsia, body weight and blood glucose” value (STZ-diabetic rats, chronic once-daily oral candesartan 0.5 or 2.0 mg/kg/day) was “None of these above parameters were significantly altered” and the “Behavioural changes after re-initiation of treatment” value (re-initiation of oral candesartan 2.0 mg/kg/day after a 6-wk interval) was “reversed these behavioural changes”.
